Experimental data reported in PubChem BioAssay AID1508600 (Functional Genomics Laboratory (NCATS/FGL), 2020).
The campaign covered roughly 53,000 sequences. About 3,700 (7%) were called active.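 The calls were made as follows: active = gene knockdowns whose robust z-score for IL-1 alpha signal is at least 2 or at most -2, so actives lie on both sides; inactive = the rest.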 The list shows a part of the results.

test: Components of the Cytosolic LPS Sensing Pathway: Gene Identification via Genome-wide siRNA Screen; conditions: RAW264.7 macrophages, IL-1a HTRF, actives lie on both sides, screened at 100 nM (by protocol), cells primed 5 h with Pam3CSK4 first;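 also: robust z of the log signal after scaling to non-targeting control siRNA wells of the plate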
Procedure, shortened: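 Supernatant IL-1a by HTRF from RAW264.7 cells primed with Pam3CSK4 (5 hours) and transfected with LipidA (24 hour) after 48h siRNA knockdown at 100 nM; cell viability checked with CellTiter-Glo.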

Question: Which z-score does the source give for GGAAGAGCUUCCCUGUCUATT against Gltpd2 here?
Answer: inactive: 0.487

Question: Which z-score does the source give for GGAAUUCCUCUGUAUGAAATT against Pgr here?
Answer: inactive: -0.824

Question: With GGAUCAAUUCUAGAAUCAGTT against Runx3 as the sequence, how does the z-score read?
Answer: inactive: 0.586

Question: For CGAUGCUGUGGAACUGCACTT against Ptgfrn, which z-score is on record?
Answer: inactive: 0.417

Question: Which z-score does the source give for CCCAUUACAAUGUCACCAGTT against Erp27 here?
Answer: inactive: -0.278

Question: For GGGAGAUAGCCGAUAUAUCTT against Ebp, which z-score is on record?
Answer: inactive: -0.904

Question: With CCAUAUGAUAAGCAUAAGCTT against Zfp449 as the sequence, how does the z-score read?
Answer: inactive: 0.149

Question: For GGAUGACCAAGAAUGGGAATT against Dap, which z-score is on record?
Answer: inactive: 0.341

Question: For GGGAAAAGUGACAAUUGCUTT against Dusp8, which z-score is on record?
Answer: inactive: 0.757

Question: Which z-score does the source give for GAGCUCCUCUGCUUUCUCUTT against Ms4a6d here?
Answer: active: -2.74

Question: For “CGUCUUUGCCCAUACACUCTT against A230052G05Rik”, which z-score is on record?
Answer: inactive: -0.917

Question: With GGGAGAGGUGUUACACCCUTT against Adamts10 as the sequence, how does the z-score read?
Answer: inactive: -0.887

Question: For GGGCUAAUUUAAACACCUATT against Rdh19, which z-score is on record?
Answer: inactive: -0.0625

Question: Which z-score does the source give for CCGUCAUCACUGAUCAGUUTT against Olfr684 here?
Answer: active: 2.7

Question: Which z-score does the source give for CCCAUAGAACAUCUUAAAATT against Ifi202b here?
Answer: inactive: -0.403

Question: Which z-score does the source give for GGACUUUCUUAACUACACUTT against Slc2a3 here?
Answer: inactive: 0.865

Question: With GGUGAGUGAUCUUCAGAACTT against Snx13 as the sequence, how does the z-score read?
Answer: inactive: 0.311

Question: With GGUGGAUUCUUUCUCCUUCTT against Fundc2 as the sequence, how does the z-score read?
Answer: inactive: 1.18

Question: With GGCAUUACUGGGUACCUACTT against Acot8 as the sequence, how does the z-score read?
Answer: inactive: 1.18

Question: With GGAGAAAGCUUACUGCCUUTT against Lrrc6 as the sequence, how does the z-score read?
Answer: inactive: -0.959

Question: For CCAGUAUUCAUGUAAAUGGTT against Crbn, which z-score is on record?
Answer: inactive: 0.753

Question: For GGCAAAUGGAUCUUUAUAATT against Eef1aknmt, which z-score is on record?
Answer: inactive: -0.928

Question: With GGACAAGUUUGAAUUUGACTT against Usp5 as the sequence, how does the z-score read?
Answer: inactive: -0.673

Question: For GGAUUCACACAAUGGCAAGTT against Rpl39, which z-score is on record?
Answer: inactive: 1.16

Question: For GGCUACAGCAGGAGAAUCATT against Bicdl2, which z-score is on record?
Answer: inactive: 0.296

Question: With GCUGGUGUCAUUAGACAGUTT against Npc1l1 as the sequence, how does the z-score read?
Answer: inactive: 0.312

Question: Which z-score does the source give for GCACUUGAACCGUGAGUGUTT against Det1 here?
Answer: inactive: 1.43

Question: Which z-score does the source give for CCUGAUUGUGUGUUCAUAATT against Ccdc92 here?
Answer: inactive: 0.229

Question: With GCUUUACGAUACUCCAUAUTT against Shd as the sequence, how does the z-score read?
Answer: inactive: -0.506

Question: Which z-score does the source give for GGGCAGUCCUCGUUUCUUATT against Rdm1 here?
Answer: inactive: 0.153

Question: Which z-score does the source give for GGCAAAGGCACUGUCAGUGTT against Ddx60 here?
Answer: inactive: -1.68

Question: Which z-score does the source give for GUGGCAGCUGACAUGAAUGTT against Plac8 here?
Answer: inactive: -0.138

Question: With GGAAAUAGGCAACAAAUAGTT against Gm4894 as the sequence, how does the z-score read?
Answer: inactive: -0.982

Question: With GGCAAUGGAGAGAGAGAUGTT against Patl1 as the sequence, how does the z-score read?
Answer: active: -2.36

Question: With GGCCUGUGGAAGAAAUACGTT against Pdhb as the sequence, how does the z-score read?
Answer: inactive: 1.82

Question: Which z-score does the source give for GGAGCAUUUCCUCACAACATT against Idh3g here?
Answer: inactive: -1.18

Question: For GCACUUUUGUAAAAAUCACTT against Aak1, which z-score is on record?
Answer: inactive: -0.825

Question: With CGUAAUACAAUCCAGUUCATT against Aqr as the sequence, how does the z-score read?
Answer: active: -2.18

Question: With GCUACCUGAAACACAGCAATT against Hes5 as the sequence, how does the z-score read?
Answer: inactive: -0.334

Question: With GGAACAACAUCCGUAUUGCTT against Brsk2 as the sequence, how does the z-score read?
Answer: inactive: -0.3

Question: For GCAUGUAGAUACGUGGGUATT against Usp38, which z-score is on record?
Answer: inactive: -0.383

Question: Which z-score does the source give for GGGAAUUUGUGAGCUAGAATT against Cinp here?
Answer: inactive: -1.94

Question: Which z-score does the source give for CCAAGAUUGACAUCAUCCGTT against Pkn1 here?
Answer: inactive: -0.595

Question: With CCUAGUGUGUUAAUUGUAATT against Ric1 as the sequence, how does the z-score read?
Answer: inactive: -1.28

Question: With GCCUAGCUGAAAACGUGUCTT against Cog4 as the sequence, how does the z-score read?
Answer: active: 5.04

Question: With GGAACAACAUGAUUGUCGUTT against Ugt1a6a as the sequence, how does the z-score read?
Answer: inactive: 1.24

Question: For GGUUAAAUCCCUGAUGUAUTT against Ptdss1, which z-score is on record?
Answer: inactive: -0.613

Question: Which z-score does the source give for GGAGGGUACUCACAGGAAATT against Olfr411 here?
Answer: active: -2.05

Question: For GCUAGCCGUGUUUUCUAUUTT against Twist2, which z-score is on record?
Answer: inactive: 1.43

Question: For GGUUUUGUUCAGGGAUCAUTT against Ppm1m, which z-score is on record?
Answer: inactive: 0.329

Question: For GGACAACACUAUCAACAAATT against Iqce, which z-score is on record?
Answer: inactive: -0.778

Question: Which z-score does the source give for CCUCAAUGAGAGUCUAAUGTT against Olfr97 here?
Answer: inactive: -1.63

Question: With GGUGUCUGAGUAAUUCUGGTT against Zscan5b as the sequence, how does the z-score read?
Answer: inactive: -1.55

Question: With GGACUGAACCCAAAUGCCUTT against Chtf8 as the sequence, how does the z-score read?
Answer: inactive: -1.45

Question: Which z-score does the source give for CGCAGUGUGUCUCAUUUAATT against Anxa5 here?
Answer: inactive: 1.61

Question: With AACCGUUAUUAAAAGUGGGTT against Mucl2 as the sequence, how does the z-score read?
Answer: inactive: -1.27

Question: Which z-score does the source give for GGUGUAAGAACUUCAAGUUTT against Tlr9 here?
Answer: inactive: 0.199

Question: Which z-score does the source give for GGUCAACAACCUCAUCUGCTT against Lhx6 here?
Answer: inactive: -0.406

Question: For GGUGUUGUGGAAUAUUUAATT against Cnot6l, which z-score is on record?
Answer: inactive: 1.23

Question: With GGAUGGACCGGAGACAACUTT against Brs3 as the sequence, how does the z-score read?
Answer: inactive: 0.533

Question: For CCCAAGAAUUCAAAUCCUATT against Rgr, which z-score is on record?
Answer: inactive: -1.39

Question: For GGACUGAAGUGAAAUAAAUTT against Trav13-5, which z-score is on record?
Answer: inactive: -0.949

Question: Which z-score does the source give for GGACUAUCAGGACCUUUUUTT against Dnajb3 here?
Answer: inactive: -0.363

Question: Which z-score does the source give for CCUUGAGCACAUCUGCUUGTT against Serpina3k here?
Answer: inactive: -1.52

Question: Which z-score does the source give for CCCGGAAUGUUUAGUAUCGTT against Fermt1 here?
Answer: inactive: -1.25

Question: Which z-score does the source give for CCAUCUCCUUCAUUCUGUGTT against Olfr444 here?
Answer: inactive: -1.15

Question: Which z-score does the source give for UGGUCACCUUUCUCUUAUUTT against Tas2r140 here?
Answer: inactive: -0.575

Question: With GGGAAACUCUUUGAAGAUATT against Lsm5 as the sequence, how does the z-score read?
Answer: inactive: -0.601

Question: Which z-score does the source give for GGCAACUGUUGGAUUGAUUTT against Ctnnb1 here?
Answer: inactive: -0.201

Question: Which z-score does the source give for GGACUUUAGUGACAGCUAUTT against Fam243 here?
Answer: inactive: -0.233

Question: With CCCUAUGUUCUUUGUCUAUTT against Brinp1 as the sequence, how does the z-score read?
Answer: inactive: -1.26

Question: Which z-score does the source give for GGCGCAUAUGUAGCACCUATT against Egfl8 here?
Answer: inactive: -0.24

Question: With GGCCUAUCUCAUCUAUUUCTT against Ptpru as the sequence, how does the z-score read?
Answer: inactive: 0.0271

Question: With GGAGUUUGUAACCCUCCUGTT against Cabp7 as the sequence, how does the z-score read?
Answer: inactive: 1.07

Question: With GGGACCAGAUCAAGACACUTT against Shroom2 as the sequence, how does the z-score read?
Answer: inactive: -0.624

Question: For GGACAGAUUUGUGAAUGAUTT against Rcn2, which z-score is on record?
Answer: inactive: -0.379

Question: For CGCAAGUAUUUCCACCAUATT against Clk4, which z-score is on record?
Answer: inactive: -0.41

Question: Which z-score does the source give for GGCAGAAGUUGGAAGAAAUTT against Tap1 here?
Answer: inactive: 0.277

Question: With GGAAUUUGUCAGGUUCCAATT against Grik4 as the sequence, how does the z-score read?
Answer: inactive: 0.859

Question: With CCAUUUGCUAUUGCUUAAATT against Faf2 as the sequence, how does the z-score read?
Answer: inactive: 0.0141

Question: With GCAGCCCACUCAUAUGAAATT against Homez as the sequence, how does the z-score read?
Answer: inactive: -0.507

Question: Which z-score does the source give for AAACAGUCAUUUCCUAUAGTT against Olfr1502 here?
Answer: active: -2.04

Question: Which z-score does the source give for GGAAUCAUUUGUUCCCAACTT against Lpl here?
Answer: inactive: -0.44

Question: For GGAUGUUGUUCGAUUUGGATT against Ubiad1, which z-score is on record?
Answer: inactive: 0.895

Question: Which z-score does the source give for GGAAAAGAUUGACAUCUGCTT against Jrk here?
Answer: inactive: -0.544

Question: With CCUGGAACUUGUUGGAAGCTT against Igsf3 as the sequence, how does the z-score read?
Answer: inactive: 0.799

Question: For GGAGAUCACAUGUUUUUUUTT against Keap1, which z-score is on record?
Answer: inactive: 0.231

Question: Which z-score does the source give for GCCUAUCUUGUCACCACUGTT against Tagln2 here?
Answer: inactive: -0.276

Question: With GGCAUCUUCCUGAAAAAGCTT against Mybpc2 as the sequence, how does the z-score read?
Answer: inactive: -0.2

Question: With UCAUUAGUAUCCUCCGUAUTT against Olfr919 as the sequence, how does the z-score read?
Answer: inactive: 0.27

Question: For “CCAUUUCCCAUUUCUGAAGTT against 1700001P01Rik”, which z-score is on record?
Answer: active: -2.22

Question: For CCAUCCGGGAAAAAAUCAATT against Cdk5rap3, which z-score is on record?
Answer: inactive: -0.0797

Question: With GGCAUGUUCUGGGCAGAUGTT against Resp18 as the sequence, how does the z-score read?
Answer: inactive: -0.12

Question: With CCAGAAACAUACGAAGAUUTT against Khdrbs1 as the sequence, how does the z-score read?
Answer: inactive: 0.459

Question: For GGAGUAUGUGCAAUAUAAATT against Asb15, which z-score is on record?
Answer: inactive: -0.859

Question: Which z-score does the source give for GAUUUGGUGUCUGCCGAGATT against Prrt1 here?
Answer: inactive: 1.73

Question: Which z-score does the source give for CGUUACGUAAAUCUUGUGATT against Sstr2 here?
Answer: inactive: 0.227

Question: Which z-score does the source give for GCUGCAUAGACUCAUGGUUTT against Znrf1 here?
Answer: inactive: -0.408

Question: With GGCCUUUUGCCAUUGACAUTT against B3gat2 as the sequence, how does the z-score read?
Answer: inactive: -1.79

Question: With GGUGAUAUAGCUAUUUUCUTT against Fbxw11 as the sequence, how does the z-score read?
Answer: inactive: 0.711

Question: With GGAUCCACACAUAUGAGGATT against Rdh19 as the sequence, how does the z-score read?
Answer: inactive: -0.287

Question: Which z-score does the source give for GGAGUGGAAGUUCAAAGAGTT against Anapc11 here?
Answer: inactive: -0.0607

Question: Which z-score does the source give for GCGAAGCUAUGGAGACAUGTT against Trib2 here?
Answer: inactive: -0.723

Question: Which z-score does the source give for GGCCAUUACUCUGAUUCAUTT against Phyhipl here?
Answer: inactive: -0.499

Question: With GGUUUCUUCUAAGAACAAATT against Astl as the sequence, how does the z-score read?
Answer: inactive: 1.46

Question: For CCACUUUCUAGAAAUCCUATT against Tmem41a, which z-score is on record?
Answer: active: -2.14

Question: For GGUGAUGGUAGCAAGACUGTT against Dcpp1, which z-score is on record?
Answer: inactive: 0.528
